Results are given in words; binding and its absence hold for the method and conditions named. For part of these data: A result given as binding can be weak or reduced; the word gives no strength. Tags and fused reporters may be left off the sequences shown. For part of these data: In cells and extracts the contact can be indirect.

The values that follow come from doi:10.1101/2023.01.18.524620.

Assay [1] concerns the target T1, N-coil-Globular N part of arabidopsis AGO1 (NcGN^AGO1), Gal4-BD fusion (Arabidopsis thaliana) (UniProt O04379).
T1 sequence: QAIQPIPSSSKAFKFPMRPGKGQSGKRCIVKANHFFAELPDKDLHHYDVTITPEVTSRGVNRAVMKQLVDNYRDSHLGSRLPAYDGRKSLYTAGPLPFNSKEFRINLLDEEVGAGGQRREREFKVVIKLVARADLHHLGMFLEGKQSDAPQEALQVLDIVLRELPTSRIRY
Nature of the assay: two-hybrid.

Assay [2] addresses T2, βNc^AGO1 (N-coil plus connecting β-strands), Gal4-BD fusion (Arabidopsis thaliana) (UniProt O04379).
T2 sequence: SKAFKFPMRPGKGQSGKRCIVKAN
Nature of the assay: two-hybrid.

For assay [3], the target named is T3, cYFP-AGO1 (full-length AGO1 fused to the C-terminal half of YFP) (Arabidopsis thaliana) (UniProt O04379).
T3 sequence: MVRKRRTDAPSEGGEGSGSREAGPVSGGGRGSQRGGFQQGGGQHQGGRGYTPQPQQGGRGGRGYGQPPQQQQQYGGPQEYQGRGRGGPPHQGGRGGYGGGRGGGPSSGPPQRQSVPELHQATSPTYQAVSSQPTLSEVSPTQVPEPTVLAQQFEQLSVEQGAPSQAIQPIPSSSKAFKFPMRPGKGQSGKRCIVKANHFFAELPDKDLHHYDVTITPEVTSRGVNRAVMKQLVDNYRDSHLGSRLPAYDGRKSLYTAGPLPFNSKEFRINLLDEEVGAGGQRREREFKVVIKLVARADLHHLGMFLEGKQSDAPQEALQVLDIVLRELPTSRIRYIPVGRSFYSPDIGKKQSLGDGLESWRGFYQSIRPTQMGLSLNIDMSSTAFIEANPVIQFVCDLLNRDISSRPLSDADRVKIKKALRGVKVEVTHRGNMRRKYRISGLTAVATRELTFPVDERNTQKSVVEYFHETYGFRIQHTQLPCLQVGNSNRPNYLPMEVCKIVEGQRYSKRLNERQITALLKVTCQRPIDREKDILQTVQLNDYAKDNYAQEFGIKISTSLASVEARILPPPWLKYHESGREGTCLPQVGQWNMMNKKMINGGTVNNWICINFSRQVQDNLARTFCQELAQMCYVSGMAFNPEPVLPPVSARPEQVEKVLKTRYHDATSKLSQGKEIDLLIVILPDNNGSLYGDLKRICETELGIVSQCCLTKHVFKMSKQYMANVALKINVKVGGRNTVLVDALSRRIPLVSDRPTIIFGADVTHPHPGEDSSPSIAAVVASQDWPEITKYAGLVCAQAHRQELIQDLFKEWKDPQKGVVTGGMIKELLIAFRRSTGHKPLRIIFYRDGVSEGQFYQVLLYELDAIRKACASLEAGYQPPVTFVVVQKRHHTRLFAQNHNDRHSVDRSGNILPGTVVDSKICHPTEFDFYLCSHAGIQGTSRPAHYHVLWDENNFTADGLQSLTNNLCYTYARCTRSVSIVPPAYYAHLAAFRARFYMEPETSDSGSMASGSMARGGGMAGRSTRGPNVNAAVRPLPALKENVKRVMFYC
Put plainly: split reporter.

The target of assay [4] is cYFP-AGO10 (Arabidopsis thaliana). Put plainly: split reporter.

Take “AUF3 fused to the Gal4 activation domain (Arabidopsis thaliana)”: the binding result in assay [1] is reported as “binds”.
On the same count and under the same terms, in the case of “NTMC2T5.1 fused to the Gal4 activation domain (Arabidopsis thaliana)” it was “binds”; in that of “PP2C fused to the Gal4 activation domain (Arabidopsis thaliana)”, “binds”.
For “TCTP fused to the Gal4 activation domain (Arabidopsis thaliana)”, the binding entry is given as “binds” in assay [1] and “no binding” in assay [2].
As to “UBI fused to the Gal4 activation domain (Arabidopsis thaliana)”, in assay [1], the binding entry is “binds”.
With “nYFP-AUF3^171-371 (Arabidopsis thaliana) (domain or fragment)”, the binding entry in assay [3] is reported as “binds”.

B1: nYFP-ATI1 (protein, UniProt O82775 1-256)
chain: MANNEEHPPRGNEWEVVSLTSSAYAAAPGPYNVESRDVRKYDAYYGAETSRDLYMSEHFVFPPSEHENLPIDESLFVAEQRKDGRDLMLEGQGLSDQFHYEAGNNQQSIYGESALGSSRHMESFGSESAVYEHGLVDAEGNLDLHSDGEGEKDVKKSTHNLPCEAWWKRRAISMYSRTREANAIWSLFFAAAVTGLVVLGQRWQQERWQVLQLKWQSSISSEKLGRVLEPLSRLKDVIVRSNPQASLVRSGSSSEV
As for B1, in assay [4], the binding result is listed as “binds weakly”.

B2: nYFP-ATI2 (protein, UniProt Q8VY98 1-266)
chain: MADKDEAATRGNDWEVVSLTASAYAAAPGPKPVVDSKDDDHKEVTPCYEAETSHPLYMSRHFVFPPTGQLENTSDLTEASLTGSHCKEGSDLSLKGLDLSDDFGGLEFSEDKGKKEENIYTTAMSSLDDERAIGGSHVYEPVEEPTEPVSPSDVTLDLNPIKDDEVANSPPSEEAWWKRSVASLIAQAKETNTVWSICIAAAVMGIVILGQHWQQERWQILQQKWESSIGNEKAGRLMGPISRLKQAFVGGQRRDSFIRASAQNDR
Turning to B2, the binding entry in assay [4] is “binds weakly”.
